# Test results taken from PubChem BioAssay AID2685 (National Center for Advancing Translational Sciences (NCATS), 2010).
# The campaign covered roughly 320,000 compounds. About 2,100 (0.66%) were called active. Inconclusive means that the source gave no clear call. Such entries were picked first, then a sample of the others. Calls follow the shape of the dose curve; as a rule, active = well fitted inhibition curve with a large enough effect in the signal ratio, with a control signal flat (not every such curve was filed as active); inconclusive = small, poorly fitted or top-dose-only effect, or effect the other way, or a change in a side signal; inactive = flat fitted curve, though single readings scatter; the % refers to the signal ratio. Where the call is inconclusive, the potency comes from a doubtful curve fit.
# Experiment: qHTS Assay for Lipid Storage Modulators in Drosophila S3 Cells
# Conditions: BODIPY lipid droplet fluorescence, 18-24 h, cells fed with added oleic acid; lipid storage change, negative = inhibition: at 46.1 µM (top of the series) unless noted
# Procedure, shortened: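 Laser-scanning cytometry quantifies lipid droplet accumulation (500–530 nm total intensity; droplet/cell object ratio) in oleic acid-fed (400 uM added) Drosophila S3 cells treated with a concentration series. 20 uM Triacsin C defined 100% inhibition.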
# % is scaled to controls: 0 for no effect and ±100 for the full control effect; potency is read from the fitted curve at half-maximal effect.
SMILES,Potency,"lipid storage change, negative = inhibition",outcome
Cc1ccc(C)c(-n2nnnc2SCC(=O)NCC2CCCO2)c1 (stereo not drawn),"inconclusive: 6.51 µM [activator, single point]",–,–
CN(C(=O)CCNC(=O)Cn1cnc2ccccc2c1=O)c1ccc(Br)cc1,"inconclusive: 5.17 µM [activator, partial curve]",–,–
Cc1nc2c(C)cccc2cc1C(=O)N/N=C/c1cccnc1,–,inconclusive: 28.7%,–
CCOc1cc(/C=N/Nc2nn3cnnc3c3ccccc23)ccc1O,–,inconclusive: -24.7%,–
COc1ccc(N(CC(=O)NCc2cccs2)S(=O)(=O)c2cccnc2)cc1,"inconclusive: 6.51 µM [rising, single point]",–,–
CC(C)(C)N(Cc1ccccc1)C(=O)COc1cccnc1[N+](=O)[O-],–,inconclusive: 11%,–
COc1ccc(-c2nnc3ccc(SCC(=O)NCc4ccco4)nn23)cc1,–,inconclusive: 24.3%,–
COc1ccc(S(=O)(=O)N2CCc3ccccc32)cc1NC(C)=O,–,inconclusive: 28.1%,–
CC(Sc1nc(N2CCOCC2)nc(N2CCOCC2)n1)C(=O)Nc1ccccc1 (stereo not drawn),–,inactive: 0.66%,–
CC(Sc1ccc([N+](=O)[O-])cn1)C(=O)Nc1nccs1 (stereo not drawn),"inconclusive: 4.11 µM [falling, full curve, poor fit]",–,–
COc1cc2nc(-c3ccccc3C)oc(=O)c2cc1OC,"inconclusive: 14.6 µM [falling, single point]",–,–
CC(NC(=O)COC(=O)c1ccc(Br)o1)c1ccccc1 (stereo not drawn),–,inconclusive,–
CCn1nnnc1SCC(=O)c1ccc(NC(C)=O)cc1,–,inconclusive: 11.3%,–
CSc1ccc(S(=O)(=O)NCC(=O)OCC(=O)NCC2CCCO2)cc1[N+](=O)[O-] (stereo not drawn),–,inconclusive: -17.6%,–
COc1ccc(F)cc1S(=O)(=O)N1CCCN(S(=O)(=O)c2cc(F)ccc2OC)CC1,"inconclusive: 6.51 µM [activator, single point]",–,–
CC(=O)Nc1ccc(C(=O)N2CCN(S(=O)(=O)c3ccc4c(c3)OCCCO4)CC2)cc1,–,inconclusive: 10%,–
O=C(C1CCN(c2nnc(-n3cccc3)s2)CC1)N1CCN(Cc2ccc3c(c2)OCO3)CC1,"inconclusive: 18.4 µM [falling, single point]",–,–
CC(C(=O)NCC(=O)Nc1ccc(F)c(F)c1F)N1CCN(c2ccc(O)cc2)CC1 (stereo not drawn),–,inconclusive: 9.9%,–
Cc1ccc2c(c1)N(CC(=O)N(Cc1ccc3c(c1)OCO3)CC1CCCO1)C(=O)C(C)O2 (stereo not drawn),"inconclusive: 6.51 µM [activator, single point]",–,–
Cc1ccccc1NC(=O)COC(=O)CNC(=O)c1sc2ccccc2c1Cl,"inconclusive: 32.6 µM [activator, single point]",–,–
O=C(c1ccc(N2CCCC2)c([N+](=O)[O-])c1)N1CCN(S(=O)(=O)c2ccccc2)CC1,–,inconclusive: -66.9%,–
CC1=CC(C)(C)n2c(O)c(C3=NC(=S)NC3=O)c3cc(OC(=O)c4cccc5ccccc45)cc1c32,–,inconclusive: -32.1%,–
COc1cc(C(N)=O)cc(Br)c1OCc1ccccc1,–,inconclusive: 32.8%,–
Clc1ccc(C2=Nn3c(nnc3-c3n[nH]c4c3CCC4)SC2)cc1,–,inconclusive: -10.6% [at 9.22 µM],–

SMILES,Potency,"lipid storage change, negative = inhibition",outcome
Cc1ccc[n+](C(C)C(=O)c2ccc(Cl)cc2)c1 (stereo not drawn),"inconclusive: 3.66 µM [activator, full curve]",–,–
CCN(CC)C(=N)/C(C#N)=N/Nc1ccccc1,–,inconclusive: -17.6%,–
COc1cccc(-c2csc(N3CCN(Cc4ccccc4)CC3)n2)c1,–,inconclusive: 12.9%,–
Cc1cccc(C)c1NS(=O)(=O)c1c(C)[nH]c(=O)[nH]c1=O,–,inconclusive: -3.04%,–
CCOC(=O)c1ccc(NC(=S)Nc2cccc(N)n2)cc1,–,inconclusive: -20.5%,–
CCn1c(CNc2nc(-c3ccccc3)cs2)nnc1SCC(=O)NCc1ccco1,–,inconclusive: 28.9%,–
Cc1ccc(-c2nn3c(-c4ccco4)nnc3c3ccccc23)cc1S(=O)(=O)NCC1CCCO1 (stereo not drawn),–,inconclusive: 0.979%,–
Cc1cccc(NC(=O)COC(=O)CSc2ccccc2)c1C,–,inconclusive: 20.1%,–
CCC(C)(C(=O)Nc1c(C)cccc1C)N(C)C(=O)c1ccc2ccccc2n1 (stereo not drawn),–,inconclusive: 12.1%,–
Cc1ccc(CNC(=O)CCNS(=O)(=O)c2ccc(C)cc2)cc1,–,inactive: 0.234%,–
CCN1CCN(Cc2ccc(NC(=O)c3cc(NC(=O)c4cncc(-c5cccs5)c4)cc(OC)c3)cc2C(F)(F)F)CC1,–,inconclusive: -28.6%,–
O=C(COc1cccc(C(F)(F)F)c1)Nc1ccc(S(=O)(=O)N2CCCCC2)cc1,–,inconclusive: -29.6%,–
Cc1cc(OCC(=O)N[C@@H](CSCc2ccccc2)C(=O)O)c2c(C)c(C)c(=O)oc2c1,"inconclusive: 1.3 µM [activator, full curve]",–,–
NC(=O)c1ccc(NS(=O)(=O)c2ccc(Br)s2)cc1,"inconclusive: 0.0046 µM [falling, full curve, poor fit]",–,–
CC(C)OCCCNC(=O)c1ccc(NC(=O)C2=CSCCO2)cc1,"inconclusive: 29.1 µM [falling, single point]",–,–
COc1ccc(-c2nc(CS(=O)CC(=O)NCc3cccnc3)c(C)o2)cc1OC (stereo not drawn),–,inconclusive: 87.9%,–
COc1ccccc1CN1CCCC(CNC(=O)c2cccc3ccccc23)C1 (stereo not drawn),–,inconclusive: -1.61%,–
COc1cccc(NC(=O)COc2ccc3c(c2)CCC3)c1,–,–,inactive [at 46.1 µM]
CC1CCCC(NC(=O)c2ccc(COc3ccccc3)o2)C1C (stereo not drawn),–,inconclusive: -100%,–
Cc1cc(C(=O)COC(=O)c2ccc(O)cc2O)c(C)n1C(C)C,–,inconclusive: -76.7%,–
CC(C)c1ccc(NC(=O)CCNC(=O)Cn2ccc3ccccc3c2=O)cc1,"inconclusive: 6.51 µM [rising, single point]",–,–
CC(=O)Nc1ccc(S(=O)(=O)NCCN2CCOCC2)cc1,–,inconclusive: 57.4%,–
O=C1c2ccccc2C(=O)N1CCCCN(C(=O)c1cc2ccccc2oc1=O)c1ccc(F)cc1F,–,inconclusive: 31.3% [activator],–
O=C(CCCC(=O)c1ccc(F)cc1)c1ccc(F)cc1,–,inconclusive: 12.8%,–

# Eleven entries from above, reformatted:
SMILES	Potency	lipid storage change, negative = inhibition	outcome
CN(C(=O)CCNC(=O)Cn1cnc2ccccc2c1=O)c1ccc(Br)cc1	inconclusive: 5.17 µM [activator, partial curve]	–	–
CC(=O)Nc1ccc(C(=O)N2CCN(S(=O)(=O)c3ccc4c(c3)OCCCO4)CC2)cc1	–	inconclusive: 10%	–
CC(C(=O)NCC(=O)Nc1ccc(F)c(F)c1F)N1CCN(c2ccc(O)cc2)CC1 (stereo not drawn)	–	inconclusive: 9.9%	–
CCN(CC)C(=N)/C(C#N)=N/Nc1ccccc1	–	inconclusive: -17.6%	–
CCOC(=O)c1ccc(NC(=S)Nc2cccc(N)n2)cc1	–	inconclusive: -20.5%	–
Cc1ccc(-c2nn3c(-c4ccco4)nnc3c3ccccc23)cc1S(=O)(=O)NCC1CCCO1 (stereo not drawn)	–	inconclusive: 0.979%	–
CCC(C)(C(=O)Nc1c(C)cccc1C)N(C)C(=O)c1ccc2ccccc2n1 (stereo not drawn)	–	inconclusive: 12.1%	–
Cc1ccc(CNC(=O)CCNS(=O)(=O)c2ccc(C)cc2)cc1	–	inactive: 0.234%	–
NC(=O)c1ccc(NS(=O)(=O)c2ccc(Br)s2)cc1	inconclusive: 0.0046 µM [falling, full curve, poor fit]	–	–
Cc1cc(C(=O)COC(=O)c2ccc(O)cc2O)c(C)n1C(C)C	–	inconclusive: -76.7%	–
CC(C)c1ccc(NC(=O)CCNC(=O)Cn2ccc3ccccc3c2=O)cc1	inconclusive: 6.51 µM [rising, single point]	–	–
